No constants are given. Whether binding was seen depends on the method and setting. Binding calls can cover weak binding; strength is not graded here. Sequences can lack the tags named with a protein. For some assays here: Binding seen in cells or lysates may run through a third protein.

In test [1] the target is T1, PRE1-cYFP-3× Myc (A. thaliana) (UniProt Q9FLE9).
T1 sequence: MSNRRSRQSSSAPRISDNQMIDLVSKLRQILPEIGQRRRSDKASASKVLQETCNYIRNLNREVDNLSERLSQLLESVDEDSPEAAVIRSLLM
In words: split reporter; BiFC in A. thaliana protoplasts: nYFP (1-155)-3×Flag and cYFP (156-239)-3×Myc fusions co-transformed; GHD7-mCherry as nuclear marker; confocal microscopy.

For test [2], the target named is T2, CIB5-cYFP-3× Myc (A. thaliana) (UniProt Q9C670).
T2 sequence: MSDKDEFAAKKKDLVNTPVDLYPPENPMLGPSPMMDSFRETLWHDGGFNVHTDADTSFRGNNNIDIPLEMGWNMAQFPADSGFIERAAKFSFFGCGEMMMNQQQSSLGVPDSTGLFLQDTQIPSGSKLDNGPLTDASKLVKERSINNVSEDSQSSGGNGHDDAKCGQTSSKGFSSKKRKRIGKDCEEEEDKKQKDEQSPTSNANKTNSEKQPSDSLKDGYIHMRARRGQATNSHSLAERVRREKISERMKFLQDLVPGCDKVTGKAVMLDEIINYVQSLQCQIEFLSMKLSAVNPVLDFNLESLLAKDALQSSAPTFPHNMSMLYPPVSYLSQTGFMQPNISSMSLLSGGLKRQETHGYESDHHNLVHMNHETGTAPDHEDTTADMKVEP
The test is described as above.

The target of test [3] is T1, PRE1-cYFP-3× Myc (A. thaliana). In words: co-IP; BiFC plasmids co-transformed into A. thaliana protoplasts, 22 °C 12-16 h in the dark; total protein on anti-c-Myc affinity gel 4 h at 4 °C; washed with TTBS (17 mM Tris, 130 mM NaCl, pH 7.5, 1% Triton-X100); blots with anti-FLAG and anti-c-Myc.
For test [4], the target named is T2, CIB5-cYFP-3× Myc (A. thaliana). Described as above.
Test [5] has as its target HLH4-BD (HLH4 in pGBKT7) (A. thaliana). In words: two-hybrid; HLH4 in pGBKT7 (bait) and preys in pGADT7, co-transfected into yeast strain Y2HGold; β-galactosidase assay on SD-trp-leu medium.

Consider HLH4-nYFP-3× FLAG (A. thaliana), for which the binding result in test [1], in test [2], in test [3] and in test [4] was “binds” throughout.

B1: CIL1 (prey in pGADT7) (protein, UniProt Q9CAA9 1-486)
chain: MDLSAKDEFSAEKRNPDNYDSVNNPSGDWRVDSYPSENLISAGPASCSPSQMMDSFGQTLWYDPTSVQAVGYAGFNGGNASSSSFRGSIDRSLEMGWNLPNLLPPKGNGLFLPNASSFLPPSMAQFPADSGFIERAARFSLFSGGNFSDMVNQPLGNSEAIGLFLQGGGTMQGQCQSNELNVGEPHNDVSVAVKESTVRSSEQAKPNVPGSGNVSEDTQSSGGNGQKGRETSSNTKKRKRNGQKNSEAAQSHRSQQSEEEPDNNGDEKRNDEQSPNSPGKKSNSGKQQGKQSSDPPKDGYIHVRARRGQATNSHSLAERVRREKISERMKFLQDLVPGCNKVTGKAVMLDEIINYVQSLQRQVEFLSMKLATVNPQMDFNLEGLLAKDALQLRAGSSSTTPFPPNMSMAYPPLPHGFMQQTLSSIGRTITSPLSPMNGGFKRQETNGWEGDLQNVIHINYGAGDVTPDPQAAATASLPAANMKVEP
In the case of B1, the binding result in test [5] is listed as “binds”.

B2: PRE1-AD (PRE1 in pGADT7) (protein, UniProt Q9FLE9 1-92)
chain: T1 sequence
Regarding B2, the binding entry in test [5] is listed as “binds”.

B3: ICE1 (prey in pGADT7) (protein, UniProt Q9LSE2 1-494)
chain: MGLDGNNGGGVWLNGGGGEREENEEGSWGRNQEDGSSQFKPMLEGDWFSSNQPHPQDLQMLQNQPDFRYFGGFPFNPNDNLLLQHSIDSSSSCSPSQAFSLDPSQQNQFLSTNNNKGCLLNVPSSANPFDNAFEFGSESGFLNQIHAPISMGFGSLTQLGNRDLSSVPDFLSARSLLAPESNNNNTMLCGGFTAPLELEGFGSPANGGFVGNRAKVLKPLEVLASSGAQPTLFQKRAAMRQSSGSKMGNSESSGMRRFSDDGDMDETGIEVSGLNYESDEINESGKAAESVQIGGGGKGKKKGMPAKNLMAERRRRKKLNDRLYMLRSVVPKISKMDRASILGDAIDYLKELLQRINDLHNELESTPPGSLPPTSSSFHPLTPTPQTLSCRVKEELCPSSLPSPKGQQARVEVRLREGRAVNIHMFCGRRPGLLLATMKALDNLGLDVQQAVISCFNGFALDVFRAEQCQEGQEILPDQIKAVLFDTAGYAGMI
As to B3, the binding result in test [5] was “no binding”.

B4: CIB5-AD (CIB5 in pGADT7) (protein, UniProt Q9C670 1-390)
chain: T2 sequence
Turning to B4, in test [5], the binding entry is reported as “binds”.
